Library screening results

From ChEMBL document CHEMBL3988442, “University of Dundee, Small-Polar-MMV Screening Library” (2021).

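Viability assay of Plasmodium falciparum sporozoites; the read-out is not stated. The concentration is filed as 10 mM, unlikely as a test dose, so the dose is not known. The record gives no direction; compounds that gave an IC50 in retests scored well above the rest, so higher reads as lower viability. Strong results were mostly tested again. About 34,000 compounds were tested under these conditions; 0.84% (about 280) showed 50% or more at least once.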

Results are given as percent effect.
The record does not define 0% and 100%; most values in the screen are far below 50% and negative numbers occur (in some assays of this library far below -100).
Compounds were drawn at random from those tested, without regard to their results.
Two or more numbers in one place are separate tests of the same structure; such repeats can differ widely.

| # | structure | effect |
|---|---|---|
| 1 | `CN1C[C@H](O)[C@]2(CCN(C(=O)COc3ccccc3)C2)S1(=O)=O` | -2.967 |
| 2 | `[H][C@@]12CCN(Cc3cnn(C)c3)C[C@@]1([H])O[C@H](c1nc(C)cs1)C2` | -12.43 |
| 3 | `Cn1cc(-c2nc(C(=O)N3CCCC3Cn3cccn3)cs2)cn1` (configuration not stated) | -4.523 |
| 4 | `Cc1cc(-c2cnc(NCc3ccncc3)nc2C(C)C)on1` | 1.047 |
| 5 | `CC(C)CNC(=O)CSc1nnc(OC(C)C)s1` | -17.87 |
| 6 | `COc1ccccc1C(=O)NC(c1ccccn1)[C@H]1CC[C@H](CN)CC1` (some centres not stated) | -0.3347 |
| 7 | `CC(C)c1ccc(CN2CCCC3(CC2)CN(C)C(=O)O3)cc1` (configuration not stated) | -4.239 |
| 8 | `Cn1cc(-c2cc(C(F)(F)F)n(CCCN)n2)cn1` | 11.39 |
| 9 | `CN1CCN(C(=O)c2cc(C#N)cn2C)c2ccccc2C1` | 0 |
| 10 | `CCOCC1CN(C(=O)c2ccncn2)Cc2cnn(CC)c21.O=C(O)C(F)(F)F` (configuration not stated) | -5.589 |
| 11 | `COCCN1Cc2nccn2CC(COCc2csc(C)n2)C1.O=C(O)C(F)(F)F.O=C(O)C(F)(F)F` (configuration not stated) | 5.026 |
| 12 | `Fc1cccc(-c2nc(CN3CCn4c(nnc4C4CC4)C3)co2)c1` | -5.392 |
| 13 | `Cc1cnn(CCNCc2nc(-c3ccccc3Cl)no2)c1` | 8.904 |
| 14 | `Cc1cnc(N2CCOC3(COCCN(c4nccs4)C3)C2)nc1` (configuration not stated) | 3.833 |
| 15 | `O=C(O)C(F)(F)F.O=C(O)C(F)(F)F.[H][C@@]12COC[C@]1(CN(C)C)CN(Cc1ccc(OC)cc1)C2` | -5.481 |
| 16 | `COCCn1ccc(NCc2scnc2C)n1` | -16.69 |
| 17 | `O=C(O)[C@H]1OCC(=O)N(Cc2cccc(Cl)c2)[C@@H]1c1ccccc1` | 3.443 |
| 18 | `CCc1nc(CNc2ccc(C(=O)N3CCSCC3)cc2C)no1` | 2.993 |
| 19 | `[H][C@@]12CNC[C@]1([H])CN(C(=O)c1cc(F)cc(F)c1)C2` | -1.54 |
| 20 | `O=C(NCCCN1CCOCC1)c1cc(-c2ccc3c(c2)CCO3)n[nH]1` | 7.338 & -1.753 & -9.649 |
| 21 | `COc1ccc(-c2cc(=O)n3c(n2)CCCCC3)cc1` | -16.39 |
| 22 | `O=C(Nc1cccnc1)c1noc2c1CN(S(=O)(=O)C1CC1)CC2` | -7.357 |
| 23 | `Cc1nocc1C(=O)N1CCOC2(COCCN(CC3CC3)C2)C1` (configuration not stated) | 3.168 |
| 24 | `CCNC(=O)N1CCCC(c2noc(CC)n2)C1` (configuration not stated) | -5.318 |
| 25 | `[H][C@@]12CN(Cc3ccccc3F)C[C@]1([H])OCCN2c1ncccn1` | 0.1684 |
| 26 | `COCCN1CCC2(CC1)CC(c1cccnc1)C(=O)N2C` (configuration not stated) | 1.906 |
| 27 | `Cc1nc(C2CCCN(C(=O)c3cc(Cl)c[nH]3)C2)no1` (configuration not stated) | -9.128 |
| 28 | `[H][C@@]12OCCN(C(=O)CC3=CCCCC3)[C@@]1([H])CC[C@@H]2OCC` | 8.647 |
| 29 | `Nc1nc(CN2CCCCC2Cn2cncn2)nc2ccccc12` (configuration not stated) | 28.33 & 37.33 & 36.41 |
| 30 | `COc1ccc2c(c1)CN(Cc1ccco1)C(=O)CCN2CC(C)(C)O` | 10.81 |
| 31 | `O=C(NCC(=O)N1CCCC1Cc1cccc(F)c1)C1CCCC1` (configuration not stated) | -16.56 |
| 32 | `Cc1csc(C2CCCN(C(=O)Cn3ccccc3=O)C2)n1` (configuration not stated) | 3.041 |
| 33 | `CN(Cc1noc(C2CC2)n1)C1CCN(CCn2cc(C#N)cn2)C1` (configuration not stated) | 13.13 |
| 34 | `O=C(O)C(F)(F)F.[H][C@]12CCC(=O)N(c3ccccc3)[C@@]1([H])CCN2c1ncc(F)cn1` | 5.079 |
| 35 | `Cc1cc(C)n(-c2ccc(NCCNS(=O)(=O)c3ccccc3)nn2)n1` | -2.249 |
| 36 | `O=C(O)C(F)(F)F.[H][C@@]12CC(=O)N(c3cccnc3)[C@@]1([H])CCN2C(=O)c1ccco1` | -5.877 |
| 37 | `CC(C)c1nnc2sc(CC3CCS(=O)(=O)CC3)nn12` | -20.02 |
| 38 | `Cc1cncc(C2CCN(C(=O)CCc3ccnn3C)CC2)n1` | 8.895 |
| 39 | `CC(O)c1cccc(OCc2ccon2)c1` (configuration not stated) | -19.29 |
| 40 | `Cc1occc1C(=O)N1CCc2ncnc(C3CCOC3)c2CC1` (configuration not stated) | -5.642 |
| 41 | `COc1c(CNC2CCc3ccccc32)c(C(C)C)nn1C` (configuration not stated) | -14.55 & -14.92 & 21.22 |
| 42 | `CC(C)c1noc(C(C)N2CCN(Cc3nnc(C4CC4)o3)CC2)n1` (configuration not stated) | -2.958 |
| 43 | `CC(C)(O)CN1CCN(C(=O)c2ccc3c(c2)COC3)CC1` | 5.291 |
| 44 | `Cc1cnn(CC(C)NCc2ccccc2OCc2cccnc2)c1` (configuration not stated) | -3.903 |
| 45 | `O=C1NCC2(CCCN(Cc3ccc(Cl)s3)C2)Oc2ccccc21` (configuration not stated) | 3.769 |
| 46 | `O=C(O)C(F)(F)F.O=C(O)C(F)(F)F.[H][C@@]12CCN(C(=O)Cc3ccsc3)[C@@]1([H])CC(=O)N2Cc1cccnc1` | 28.11 |
| 47 | `Cc1cccc(CN2CCc3ncnc(N4CCOCC4)c3CC2)n1.O=C(O)C(F)(F)F` | -6.08 |
| 48 | `CC(C)c1n[nH]c(C(=O)NC(C)c2ccncc2)c1Br` (configuration not stated) | 40.84 & 49.25 & 43.96 |
| 49 | `O=C(CSc1ccccc1F)NS(=O)(=O)c1ccc2c(c1)OCCO2` | -5.66 |
| 50 | `O=C(NCc1ccccc1Cn1cncn1)C1CCCC1` | -1.167 |
| 51 | `CN(CC1(CO)CCCC1)c1nc2c(c(=O)[nH]1)Cc1ccccc1OC2` | 63.62 & 42.71 |
| 52 | `CN(C)CC1CN(Cc2coc(-c3ccccc3)n2)CCO1` (configuration not stated) | 6.528 |
| 53 | `Cc1ccccc1-c1noc(CN2CCn3c(nnc3C3CC3)C2)n1` | 3.382 |
| 54 | `c1cc(C2CCN(c3cncnc3)CC2)ccn1` | 1.773 |
| 55 | `O=C(CCc1nccs1)N1CCN(c2ccc(Cl)cn2)CC1` | -0.102 |
| 56 | `O=C(CNC(=O)c1cnc2ccccc2c1O)NCCCn1ccnc1` | -5.882 |
| 57 | `COCC(NC(=O)c1ccc[nH]1)c1cccc(C(F)(F)F)c1` (configuration not stated) | -5.313 |
| 58 | `Cc1cc(NC(=O)CN2CCN(c3nccs3)C(C)C2)on1` (configuration not stated) | 5.569 |
| 59 | `O=C(O)C(F)(F)F.[H][C@]12C[C@@H](CN(C)C)N(CC3CC3)[C@@]1([H])CCN(C(=O)c1ccoc1)C2` | 8.558 |
| 60 | `c1coc(-c2nc(CN3CCn4c(nnc4C4CC4)C3)cs2)c1` | -2.023 |
| 61 | `COCCC(=O)NC[C@H]1CC[C@H](C(c2ccccn2)N(C)C)CC1` (some centres not stated) | 3.875 |

The last 5 entries again:

structure	effect
COCC(NC(=O)c1ccc[nH]1)c1cccc(C(F)(F)F)c1 (configuration not stated)	-5.313
Cc1cc(NC(=O)CN2CCN(c3nccs3)C(C)C2)on1 (configuration not stated)	5.569
O=C(O)C(F)(F)F.[H][C@]12C[C@@H](CN(C)C)N(CC3CC3)[C@@]1([H])CCN(C(=O)c1ccoc1)C2	8.558
c1coc(-c2nc(CN3CCn4c(nnc4C4CC4)C3)cs2)c1	-2.023
COCCC(=O)NC[C@H]1CC[C@H](C(c2ccccn2)N(C)C)CC1 (some centres not stated)	3.875